Measured values: paper PMC9698730 (Molecules, 2022)

Test system: RNA-FL complex
Assay type: binding, SARS-CoV-2
Protocol: To further address whether the ligands may modify the oligomeric status of the FL protein, we performed dynamic light scattering experiments. […] We then tested whether ligand binding to FL could be competitive with nucleic acids binding.
The experiments were performed on a Malvern nanosizer apparatus. The temperature was set at 20 °C, and 10 scans with a duration of 10 s each were acquired in duplicate for each time and sample. The size distribution in the intensity of the scattered light was obtained using the Cumulants method from the instrumental software, yielding the hydrodynamic diameter. The N NTD concentration was in the range of 40–60 μM, the FL concentration was in the range of 1 to 10 µM in 20 mM Tris buffer at pH = 7.9 containing 100 mM NaCl. The melting experiments were performed at a heating rate of 1 °C/min over the range 30 °C to 65 °C in sealed disposable cuvettes. The apparent melting temperature, Tm, was determined by the first derivative of the melting curve.

COc1ccc2cc([C@H](C)C(=O)O)ccc2c1 [Naproxen, naproxen]
competition with RNA / nucleic acids binding to FL: consistent with a competition
